Source: article PMC5426800
No constants are given. Whether binding was seen depends on the method and setting. In cells and extracts the contact can be indirect. Some binding calls cover weakened binding; strength is not graded here. For part of these data: Tags and fused reporters may be left off the sequences shown.

Sequences of proteins named here, by UniProt entry; tags and fusion partners are left off.
UniProt P49736: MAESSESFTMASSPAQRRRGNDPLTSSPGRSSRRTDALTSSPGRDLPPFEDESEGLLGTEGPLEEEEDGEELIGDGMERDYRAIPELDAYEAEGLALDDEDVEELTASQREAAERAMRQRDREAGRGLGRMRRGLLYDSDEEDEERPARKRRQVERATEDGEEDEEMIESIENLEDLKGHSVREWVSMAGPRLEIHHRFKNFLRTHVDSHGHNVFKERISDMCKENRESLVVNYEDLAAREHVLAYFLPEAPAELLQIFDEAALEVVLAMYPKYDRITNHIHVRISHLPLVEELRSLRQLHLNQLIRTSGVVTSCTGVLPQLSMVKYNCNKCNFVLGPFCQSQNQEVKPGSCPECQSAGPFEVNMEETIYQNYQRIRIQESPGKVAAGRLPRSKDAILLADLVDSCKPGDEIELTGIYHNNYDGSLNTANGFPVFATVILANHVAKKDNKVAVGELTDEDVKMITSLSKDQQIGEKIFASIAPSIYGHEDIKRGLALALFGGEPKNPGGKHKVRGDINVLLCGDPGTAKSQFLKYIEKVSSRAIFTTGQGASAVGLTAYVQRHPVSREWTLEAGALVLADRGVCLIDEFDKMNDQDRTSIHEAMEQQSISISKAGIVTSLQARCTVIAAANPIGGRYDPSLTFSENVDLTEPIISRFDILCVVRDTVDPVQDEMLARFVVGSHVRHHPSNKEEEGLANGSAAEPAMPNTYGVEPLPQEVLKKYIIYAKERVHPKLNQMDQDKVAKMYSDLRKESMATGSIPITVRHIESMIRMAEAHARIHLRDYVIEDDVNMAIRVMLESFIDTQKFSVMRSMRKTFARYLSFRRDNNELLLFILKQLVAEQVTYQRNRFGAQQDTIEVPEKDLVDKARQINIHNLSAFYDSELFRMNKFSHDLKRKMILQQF
UniProt P51692: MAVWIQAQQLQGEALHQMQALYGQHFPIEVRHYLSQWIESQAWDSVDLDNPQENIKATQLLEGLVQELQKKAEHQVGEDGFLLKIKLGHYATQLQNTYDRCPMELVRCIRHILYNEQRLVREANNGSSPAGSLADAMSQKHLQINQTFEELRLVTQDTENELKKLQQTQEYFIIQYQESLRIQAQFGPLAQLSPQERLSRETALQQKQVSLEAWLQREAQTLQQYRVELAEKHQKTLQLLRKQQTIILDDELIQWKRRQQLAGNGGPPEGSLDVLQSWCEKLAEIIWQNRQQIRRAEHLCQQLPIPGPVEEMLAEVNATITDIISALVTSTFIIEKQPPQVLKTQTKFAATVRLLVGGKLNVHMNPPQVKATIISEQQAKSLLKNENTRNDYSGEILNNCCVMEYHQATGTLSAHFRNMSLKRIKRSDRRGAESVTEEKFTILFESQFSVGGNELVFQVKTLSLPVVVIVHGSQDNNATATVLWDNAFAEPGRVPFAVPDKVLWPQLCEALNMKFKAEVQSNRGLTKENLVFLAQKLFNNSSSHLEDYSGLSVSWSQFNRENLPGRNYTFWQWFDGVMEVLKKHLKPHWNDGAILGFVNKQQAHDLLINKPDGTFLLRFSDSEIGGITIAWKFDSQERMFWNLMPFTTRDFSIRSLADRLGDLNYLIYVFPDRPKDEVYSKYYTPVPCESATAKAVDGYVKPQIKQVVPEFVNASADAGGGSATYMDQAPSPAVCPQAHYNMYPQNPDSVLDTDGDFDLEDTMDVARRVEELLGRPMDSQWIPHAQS
UniProt Q15329: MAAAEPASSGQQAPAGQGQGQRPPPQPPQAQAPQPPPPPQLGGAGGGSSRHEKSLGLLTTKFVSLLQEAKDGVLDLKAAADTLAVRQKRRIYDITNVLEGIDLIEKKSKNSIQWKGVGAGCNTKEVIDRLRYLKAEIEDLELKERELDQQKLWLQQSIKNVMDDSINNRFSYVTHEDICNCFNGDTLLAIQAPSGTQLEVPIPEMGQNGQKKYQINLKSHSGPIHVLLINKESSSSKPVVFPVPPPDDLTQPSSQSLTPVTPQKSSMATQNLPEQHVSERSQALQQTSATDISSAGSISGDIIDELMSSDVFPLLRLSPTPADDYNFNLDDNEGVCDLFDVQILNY

How the values were obtained:
[1] = molecular target: T1, B19V large non-structural protein NS1, Flag-tagged (human parvovirus B19) (UniProt Q9PZT1); experiment: co-IP; anti-Flag-conjugated beads or control beads on lysates of NS1-Flag-expressing UT7/Epo-S1 cells; blots for MCM2, pSTAT5(Y694), E2F5 and Flag; the paper calls it a pull-down
T1 sequence: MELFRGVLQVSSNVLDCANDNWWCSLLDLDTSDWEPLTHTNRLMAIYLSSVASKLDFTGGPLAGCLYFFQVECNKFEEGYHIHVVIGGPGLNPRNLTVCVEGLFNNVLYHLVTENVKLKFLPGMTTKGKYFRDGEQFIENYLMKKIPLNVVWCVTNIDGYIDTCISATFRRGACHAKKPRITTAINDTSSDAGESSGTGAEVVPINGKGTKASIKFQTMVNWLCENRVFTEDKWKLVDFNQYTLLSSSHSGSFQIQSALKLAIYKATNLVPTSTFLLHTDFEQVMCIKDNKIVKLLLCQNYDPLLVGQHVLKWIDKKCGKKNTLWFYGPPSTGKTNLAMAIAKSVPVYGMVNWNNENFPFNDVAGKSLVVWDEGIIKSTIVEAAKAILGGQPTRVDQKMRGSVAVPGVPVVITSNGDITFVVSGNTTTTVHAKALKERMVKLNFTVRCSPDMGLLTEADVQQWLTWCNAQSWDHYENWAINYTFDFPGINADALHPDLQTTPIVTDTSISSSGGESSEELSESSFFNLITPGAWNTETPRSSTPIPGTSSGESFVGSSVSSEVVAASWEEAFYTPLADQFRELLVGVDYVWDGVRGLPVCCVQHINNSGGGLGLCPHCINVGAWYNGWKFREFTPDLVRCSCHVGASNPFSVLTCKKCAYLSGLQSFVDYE

[2] = molecular target: MCM2 (minichromosome maintenance complex subunit 2) (human (endogenous in UT7/Epo-S1 and CD36+ EPCs)) (UniProt P49736); experiment: co-IP; endogenous proteins; UT7/Epo-S1 cells lysed in RIPA buffer, 3 ug antibody (anti-pSTAT5(Y694), anti-MCM5, anti-MCM2 or control IgG) overnight at 4 C, Protein A/G beads, washed with PBS; lysate with or without DNase (750 units of Benzonase) in Fig 7D

Row | Substance | binding [1] | binding [2]
1 | MCM2 (minichromosome maintenance complex subunit 2) (from UniProt P49736 1-904) | no binding | 
2 | STAT5B (from UniProt P51692 1-787) |  | binds
3 | transcription factor E2F5 (from UniProt Q15329 1-346) | binds | 
